Record: PubChem BioAssay AID686938 (Drosophila RNAi Screening Center, 2013)

- Aim: 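Knock-downs reducing store-operated calcium influx in Drosophila cells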 (primary screen)
- Cells: Drosophila S2R+ cells
- Knock-down reagent: long dsRNA against Drosophila genes, about 0.25 µg dsRNA per well, roughly 10,000 cells
- Duration: 5 days of knock-down before the calcium assay
- Conditions: thapsigargin (SERCA pump blocker) to empty calcium stores; entry signal taken 4 min after adding it
- Detection: 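Duplicate raw fluo-4 intensities per well from a plate reader, at rest and four minutes after thapsigargin emptied calcium stores; entry-to-rest ratio filled for only some wells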
- Direction: calcium entry signal: higher = stronger calcium signal after store depletion; resting calcium signal: higher = higher resting calcium signal
- Units: calcium entry signal in fluorescence units; resting calcium signal in fluorescence units
- Hit rule: 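Called when the plate z-score of the entry-to-rest ratio, mean of duplicates, falls below −3; wells with low overall dye signal (Fmax z below −2) or more than five off-targets excluded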
- Meaning of the calls: active = strongly reduced calcium entry; inactive = no strong reduction
The deposit covers about 23,000 reagents; below is a random part of those with a known target gene and a result. Of all reagents, 75 (0.33%) are marked active. 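Raw plate signals without normalisation; calls rest on plate z-scores that were not deposited; ratio present for only 364 wells.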 A number with no mark means an inactive call. Reagents against one gene are numbered here. No sequences are given here. The record does not give: the dose of the treatment.

With knock-down of CG15225 #1, the screen gave calcium entry signal, replicate 1 = 5.24e7; calcium entry signal, replicate 2 = 4.93e7; resting calcium signal, replicate 1 = 2.41e7; resting calcium signal, replicate 2 = 2.12e7.
Depletion of CG15225 #2 resulted in: calcium entry signal, replicate 1 = 5.97e7; calcium entry signal, replicate 2 = 3.25e7; resting calcium signal, replicate 1 = 2.88e7; resting calcium signal, replicate 2 = 1.43e7.
With knock-down of Meics (Meiotic central spindle) the results were calcium entry signal, replicate 1 = 2.50e7; calcium entry signal, replicate 2 = 3.44e7; resting calcium signal, replicate 1 = 1.39e7; resting calcium signal, replicate 2 = 1.58e7.
With knock-down of CG14835 the results were calcium entry signal, replicate 1 = 2.42e7; calcium entry signal, replicate 2 = 3.57e7; resting calcium signal, replicate 1 = 1.25e7; resting calcium signal, replicate 2 = 1.61e7.
CG15767 gave calcium entry signal, replicate 1 = 3.09e7; calcium entry signal, replicate 2 = 3.85e7; resting calcium signal, replicate 1 = 1.62e7; resting calcium signal, replicate 2 = 1.80e7.
After knock-down of Sap47 (Synapse-associated protein 47kD), the record shows calcium entry signal, replicate 1 = 1.59e7; calcium entry signal, replicate 2 = 2.14e7; resting calcium signal, replicate 1 = 8.17e6; resting calcium signal, replicate 2 = 9.57e6.
For AOX4 (Aldehyde oxidase 4), the entry reads calcium entry signal, replicate 1 = 2.39e7; calcium entry signal, replicate 2 = 5.15e7; resting calcium signal, replicate 1 = 1.25e7; resting calcium signal, replicate 2 = 5.40e7.
Against CG13131 #1, the values are calcium entry signal, replicate 1 = 3.33e7; calcium entry signal, replicate 2 = 4.22e7; resting calcium signal, replicate 1 = 1.31e7; resting calcium signal, replicate 2 = 1.83e7.
Against CG13131 #2 the deposit lists calcium entry signal, replicate 1 = 3.44e7; calcium entry signal, replicate 2 = 3.11e7; resting calcium signal, replicate 1 = 2.01e7; resting calcium signal, replicate 2 = 1.68e7.
With knock-down of scat (scattered), the screen gave calcium entry signal, replicate 1 = 4.74e7; resting calcium signal, replicate 1 = 2.23e7.
For CG13438, the values are calcium entry signal, replicate 1 = 2.50e7; calcium entry signal, replicate 2 = 3.11e7; resting calcium signal, replicate 1 = 1.30e7; resting calcium signal, replicate 2 = 1.40e7.
For Dpit47 (DNA polymerase interacting tpr containing protein of 47kD), the entry reads calcium entry signal, replicate 1 = 4.28e7; calcium entry signal, replicate 2 = 3.96e7; resting calcium signal, replicate 1 = 2.00e7; resting calcium signal, replicate 2 = 1.89e7.
With knock-down of Gpb5 (Glycoprotein hormone beta 5) the results were calcium entry signal, replicate 1 = 5.82e7; calcium entry signal, replicate 2 = 3.44e7; resting calcium signal, replicate 1 = 2.69e7; resting calcium signal, replicate 2 = 1.70e7.
ppk14 (pickpocket 14) gave calcium entry signal, replicate 1 = 3.74e7; calcium entry signal, replicate 2 = 3.47e7; resting calcium signal, replicate 1 = 2.04e7; resting calcium signal, replicate 2 = 1.66e7.
Knock-down of CG13062 resulted in: calcium entry signal, replicate 1 = 4.84e7; calcium entry signal, replicate 2 = 5.04e7; resting calcium signal, replicate 1 = 1.97e7; resting calcium signal, replicate 2 = 2.30e7.
nudC #1 scored calcium entry signal, replicate 1 = 3.24e7; calcium entry signal, replicate 2 = 4.59e7; resting calcium signal, replicate 1 = 1.68e7; resting calcium signal, replicate 2 = 1.95e7.
nudC #2 scored calcium entry signal, replicate 1 = 2.93e7; calcium entry signal, replicate 2 = 4.13e7; resting calcium signal, replicate 1 = 1.62e7; resting calcium signal, replicate 2 = 1.89e7.
l(2)05287 (lethal (2) 05287) #1 scored calcium entry signal, replicate 1 = 1.94e7; resting calcium signal, replicate 1 = 1.13e7.
l(2)05287 (lethal (2) 05287) #2 showed calcium entry signal, replicate 1 = 2.28e7; calcium entry signal, replicate 2 = 2.31e7; resting calcium signal, replicate 1 = 1.35e7; resting calcium signal, replicate 2 = 1.47e7.
Against Gr47a (Gustatory receptor 47a) the deposit lists calcium entry signal, replicate 1 = 4.41e7; calcium entry signal, replicate 2 = 4.45e7; resting calcium signal, replicate 1 = 1.98e7; resting calcium signal, replicate 2 = 1.97e7.
After knock-down of Dhrs4 (Dehydrogenase/reductase 4), the record shows calcium entry signal, replicate 1 = 5.41e7; calcium entry signal, replicate 2 = 4.25e7; resting calcium signal, replicate 1 = 3.53e7; resting calcium signal, replicate 2 = 1.78e7.

Single entries from the list:
CG15225 #2, calcium entry signal, replicate 2 → 3.25e7
For “resting calcium signal, replicate 2”, Dhrs4 (Dehydrogenase/reductase 4) shows 1.78e7
